Patent USRE28744E, “Crystalline p-hydroxyampicillin and salts thereof” (priority 1968, dated 1976)
At least one compound was matched to its structure with a doubt left.

Experiment: hydrolysis of the O-benzyloxycarbonyl group in phosphate buffer pH 9, paper chromatography
Format: physicochemical
Conditions: phosphate buffer pH 9, 3 days, room temperature

With `CC1(C)S[C@@H]2[C@H](NC(=O)[C@H](N)c3ccc(OC(=O)OCc4ccccc4)cc3)C(=O)N2[C@H]1C(=O)O` [Example 12, 6-[(-)-α-amino-α-(p-benzyloxycarbonyloxyphenyl)-acetamido]penicillanic acid] the “conversion to 6-[(-)-α-amino-α-(p-hydroxyphenyl)acetamido]penicillanic acid” value was “virtually complete”.
